Assay results published in US20020188022A1, “Methods for modulation, stimulation, and inhibition of glutamate reuptake” (Annovis. Inc., priority 2000, published 2002).
At least one structure is not confirmed: it was looked up by name or label, or the drawing left a doubt. Some of these results come from one statement about several compounds together. Some ranges recur; such a range may be that of the whole group of compounds.

System: T1, Glial Glutamate Transporter (GLAST and GLT1)
T1 construct: other: GLT1-specific compounds; Km for displacing [3H]-4MG
Test: Binding of [3H]-4MG to rat forebrain membrane homogenates in Na+-containing HEPES buffer
Settings: for Part of [3H]-4MG binding displaced: GLT1-specific compounds
Experimental: Forebrain tissue from female Sprague Dawley rats was homogenized in HEPES buffer containing Na^+, and membranes were washed twice in the same buffer. Binding experiments were also performed in this buffer. Initial studies determined appropriate parameters for time (15 minutes incubation at 4° C.) and drug concentration (20 nM [^3H]-4MG) to be used in subsequent experiments. Following incubation of [^3H]-4MG with or without other compounds, binding was terminated by rapid filtration through Whatman GF/B filter discs and washing 3 times with buffer using a Brandel cell harvester. Binding was determined by scintillation spectrometry. A full range of association, dissociation, saturation and inhibition studies was performed over varying incubation times (up to 60 min). Data were analysed using computer-assisted curve fitting. Values are expressed as mean of at least triplicate determinations and multiple experiments.
A full range of association, dissociation, saturation and inhibition studies was performed over varying incubation times (up to 60 min). Data were analysed using computer-assisted curve fitting. Values cited are expressed as mean of at least triplicate determinations and multiple experiments.

| SMILES | Part of [3H]-4MG binding displaced | Km (read-out: Km for displacing [3H]-4MG) |
| --- | --- | --- |
| CC(C)[C@H]1CN[C@H](C(=O)O)[C@H]1CC(=O)O [DHK, L-Dihydrokainate] | 35-50% |  |
| C=C(C)[C@H]1CN[C@H](C(=O)O)[C@H]1CC(=O)O [KA, kainate] | 35-50% |  |
| C[C@H](C[C@H](N)C(=O)O)C(=O)O [4MG, (2S,4R)-4-methylglutamate] |  | 3.4 µM |
